# Test results published in US20230401449A1, “MEANS AND METHODS FOR CLASSIFYING MICROBES” (UNIVERSITÉ DE LAUSANNE, priority 2020, published 2023).
# System: Lake Geneva microbial community
# Experiment: 14C-labeled substrate incorporation, biomass yield of lake water community
# Assay type: cell-based
# Details: 3 days incubation
structure (smiles),measurement,setting,value
"Oc1ccccc1 [Phenol, phenol]",14C based biomass yield,substrate 0.1 mg/l as sole carbon source,0.135 ± 0.027 g/g
same,14C based biomass yield,substrate 1.0 mg/l as sole carbon source,0.151 ± 0.052 g/g
same,14C based biomass yield,substrate 10 mg/l as sole carbon source,0.166 ± 0.042 g/g
